Taken from: PubChem BioAssay AID1224828 (NIAID, 2016)
This is an unselected part of about 17,000 reagents tested. In the full data, 762 (4.5%) got an active call. 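Active calls include both raised and lowered p65 entry, mostly lowered; wells with fewer than 50 cells lack a z-score.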 Raw values vary from plate to plate and are shown uncorrected. Unmarked entries are inactive.

Screen: 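Knock-downs that increase or decrease LPS-induced p65 nuclear translocation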 (primary screen)
Cells: mouse RAW264.7 G9 macrophage reporter cells (GFP-p65, Tnf promoter-mCherry)
Reagents: siRNA pool against mouse genes, 100 nM
Time to read-out: 2 days siRNA transfection, then 40 min LPS before fixation
Challenge: LPS (Salmonella minnesota R595) at 10 ng/ml
Measured: 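Microscopy ratio of nuclear to perinuclear-ring GFP-p65 signal, scaled to the plate median; gene score is the average of two replicate robust z-scores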
Scale: p65 translocation robust z-score: higher = more nuclear NF-kappaB p65 after LPS than the plate median; nuclear/cytoplasmic p65 ratio: higher = more nuclear NF-kappaB p65
Active means: 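Active if robust z is above 3.3 (negative regulators) or below -1.56, the Tlr4 control median (positive regulators); activity score 50 or more; control wells not called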
Calls: active = hit (p65 shift raised or lowered); inactive = no clear change

gene knocked down	PubChem SID	p65 translocation robust z-score	nuclear/cytoplasmic p65 ratio, rep 1	nuclear/cytoplasmic p65 ratio, rep 2	low cell count flag
Gabrg1	SID315466804	1.73	1.67	1.58	enough cells to score
Lactb	SID315475753	-1.18	1.38	1.27	enough cells to score
Myh2	SID315468058	-0.05	1.4	1.37	enough cells to score
Or10s1	SID315480492	2.16	1.73	1.42	enough cells to score
Msc	SID315467985	-0.14	1.4	1.35	enough cells to score
Bloc1s1	SID315466856	-0.88	1.37	1.4	enough cells to score
Ptpmt1	SID315472456	0.81	1.66	1.81	enough cells to score
Or8g35	SID315479946	2.28	1.7	1.5	enough cells to score
Or2n1	SID315480472	-0.93	1.49	1.29	enough cells to score
Rgl3	SID315474305	0.32	1.48	1.23	enough cells to score
Tlm	SID315469741		1.41	1.3	fewer than 50 cells per well; well left out of scoring
Dnal4	SID315471163	-1.66 (active)	1.23	1.08	enough cells to score
Slc3a2	SID315467887		1.45	1.47	fewer than 50 cells per well; well left out of scoring
Frem2	SID315479592	-0.13	1.35	1.44	enough cells to score
Ces1c	SID315466557	0.58	1.77	1.46	enough cells to score
Galnt12	SID315478766		1.11	1.18	fewer than 50 cells per well; well left out of scoring
Cemip	SID315475767	-1.13	1.24	1.42	enough cells to score
Tfb1m	SID315478344	-0.7	1.41	1.49	enough cells to score
Mael	SID315476138	0.28	1.38	1.34	enough cells to score
Rdh7	SID315471161	0.75	1.54	1.28	enough cells to score
Cyren	SID315475576		1.62	1.47	fewer than 50 cells per well; well left out of scoring
Or1n1b	SID315480563	-0.21	1.61	1.37	enough cells to score
Il17rb	SID315470874	-0.44	1.39	1.35	enough cells to score
Apol9b	SID315474369	-0.28	1.55	1.59	enough cells to score
Slamf7	SID315475107	-0.15	1.38	1.25	enough cells to score
Cts7	SID315471371	0.71	1.72	1.86	enough cells to score
Caml	SID315465740	-0.89	1.55	1.54	enough cells to score
Phxr1	SID315468499		1.39	1.23	fewer than 50 cells per well; well left out of scoring
Mrgprx3-ps	SID315480896	0.07	1.5	1.61	enough cells to score
Adgre4	SID315470987	-0.01	1.5	1.63	enough cells to score
Trmt6	SID315472720		1.35	1.14	fewer than 50 cells per well; well left out of scoring
Purg	SID315475069	-0.74	1.26	1.15	enough cells to score
Spin4	SID315480933	0.76	1.59	1.59	enough cells to score
Dse	SID315477765	-0.69	1.14	1.14	enough cells to score
Kcnq4	SID315472037	-0.21	1.39	1.4	enough cells to score
Riox2	SID315472778	0.97	1.83	1.72	enough cells to score
Mob3b	SID315477896	0.38	1.89	1.61	enough cells to score
Fzd4	SID315466775	0.63	1.59	1.72	enough cells to score
Ifi44	SID315476197	0.96	1.92	1.6	enough cells to score
Uqcrfs1	SID315472589	-0.03	1.49	1.52	enough cells to score
Tcte2	SID315469638		1.08	1.1	fewer than 50 cells per well; well left out of scoring
Tfr2	SID315470828	0.93	1.61	1.66	enough cells to score
Zcrb1	SID315472892	0.14	1.42	1.34	enough cells to score
Zfp11	SID315470092	0.17	1.32	1.37	enough cells to score
Lad1	SID315467712	-0.53	1.46	1.38	enough cells to score
Wnk1	SID315478980	0.64	1.74	1.5	enough cells to score
Slfn10	SID315479372		1.48	1.16	fewer than 50 cells per well; well left out of scoring
Sv2b	SID315472074	1.04	1.41	1.35	enough cells to score
Or10h1b	SID315481998		1.48	1.38	fewer than 50 cells per well; well left out of scoring
Rbbp9	SID315470423	0.42	1.65	1.51	enough cells to score
Stard3nl	SID315475262	0.81	1.56	1.3	enough cells to score
Spata7	SID315476464	-1.02	1.41	1.57	enough cells to score
Vmn1r37	SID315477272	-0.09	1.35	1.24	enough cells to score
Or11g24	SID315480317		1.59	1.2	fewer than 50 cells per well; well left out of scoring
Nlrp4b	SID315477627	0.32	1.58	1.63	enough cells to score
Slc18a1	SID315476943	0.47	1.43	1.34	enough cells to score
Wnt6	SID315470048	0.18	1.6	1.47	enough cells to score
Med11	SID315472265	-0.74	1.4	1.38	enough cells to score
Chordc1	SID315472715	-0.73	1.58	1.56	enough cells to score
Zfp35	SID315470112	1.36	1.52	1.47	enough cells to score
Fyttd1	SID315473911		1.22	1.62	fewer than 50 cells per well; well left out of scoring
Bud13	SID315477906	-0.48	1.5	1.71	enough cells to score
Dnmt1	SID315466359	1	1.59	1.52	enough cells to score
Sharpin	SID315476523		1.54	1.25	fewer than 50 cells per well; well left out of scoring
Or51f23b	SID315480711		1.28	1.23	fewer than 50 cells per well; well left out of scoring
Nt5el	SID315472628		1.26	1.21	fewer than 50 cells per well; well left out of scoring
Clpp	SID315471129	-0.63	1.47	1.3	enough cells to score
Gatd3a	SID315470695	0.45	1.59	1.92	enough cells to score
Zan	SID315470084	-0.46	1.33	1.21	enough cells to score
Dio1	SID315466326	3.31 (active)	1.63	1.78	enough cells to score
Tdh	SID315471924		1.11	1.09	fewer than 50 cells per well; well left out of scoring
Slc22a15	SID315479599	0.02	1.34	1.24	enough cells to score
Smpd4	SID315475489	0.93	1.43	1.33	enough cells to score
Rgs11	SID315470844	-0.38	1.4	1.59	enough cells to score
Tmem74	SID315479439	-1.45	1.35	1.35	enough cells to score

11 neighbouring entries already listed, for reference:
gene knocked down	PubChem SID	p65 translocation robust z-score	nuclear/cytoplasmic p65 ratio, rep 1	nuclear/cytoplasmic p65 ratio, rep 2	low cell count flag
Trmt6	SID315472720		1.35	1.14	fewer than 50 cells per well; well left out of scoring
Purg	SID315475069	-0.74	1.26	1.15	enough cells to score
Spin4	SID315480933	0.76	1.59	1.59	enough cells to score
Dse	SID315477765	-0.69	1.14	1.14	enough cells to score
Kcnq4	SID315472037	-0.21	1.39	1.4	enough cells to score
Riox2	SID315472778	0.97	1.83	1.72	enough cells to score
Mob3b	SID315477896	0.38	1.89	1.61	enough cells to score
Fzd4	SID315466775	0.63	1.59	1.72	enough cells to score
Ifi44	SID315476197	0.96	1.92	1.6	enough cells to score
Uqcrfs1	SID315472589	-0.03	1.49	1.52	enough cells to score
Tcte2	SID315469638		1.08	1.1	fewer than 50 cells per well; well left out of scoring
